Data as given in patent US20110217237A1.
Changes are numbered by the printed parent chain. These are yes or no findings as the source states them, for the method shown. Binding calls can cover weak binding; strength is not graded here.

B1: h1A11.5 (antibody, V domains shown)
VH: EVQLVESGGGLVQPGGSLRLSCAASGFTFSNFPMAWVRQAPGKGLEWVATISSSDGTTYYRDSVKGRFTISRDNAKSSLYLQMNSLRAEDTAVYYCSRGYYNSPFAYWGQGTLVTVSS
VL: DIQMTQSPSSLSASVGDRVTITCRASEDIYSNLAWYQQKPGKAPKLLIYDTNNLADGVPSRFSGSGSGTDFTLTISSLQPEDFATYYCQQYNNYPPTFGQGTKLEIKR
B2: h1A11.6 (antibody, V domains shown)
VH: B1 VH
VL: B1 VL with A43S, Y49F, F71S, Y87F
B3: h1A11.7 (antibody, V domains shown)
VH: B1 VH
VL: B1 VL with Y49F
B4: h1A11.8 (antibody, V domains shown)
VH: B1 VH
VL: EIVMTQSPATLSVSPGERATLSCRASEDIYSNLAWYQQKPGQSPRLLIFDTNNLADGVPARFSGSGSGTESTLTISSLQSEDFAVYFCQQYNNYPPTFGQGTKLEIKR
B5: h1A11.9 (antibody, V domains shown)
VH: B1 VH with S77N
VL: B1 VL
B6: h1A11.10 (antibody, V domains shown)
VH: B1 VH with S77N
VL: B1 VL with A43S, Y49F, F71S, Y87F
B7: h1A11.11 (antibody, V domains shown)
VH: B1 VH with S77N
VL: B1 VL with Y49F
B8: h1A11.12 (antibody, V domains shown)
VH: B1 VH with S77N
VL: B4 VL
B9: h1A11.13 (antibody, V domains shown)
VH: B1 VH with A75S, S78T
VL: B1 VL
B10: h1A11.14 (antibody, V domains shown)
VH: B1 VH with A75S, S78T
VL: B1 VL with A43S, Y49F, F71S, Y87F
B11: h1A11.15 (antibody, V domains shown)
VH: B1 VH with A75S, S78T
VL: B1 VL with Y49F
B12: h1A11.16 (antibody, V domains shown)
VH: B1 VH with A75S, S78T
VL: B4 VL

Molecular target: cynomolgus monkey DLL4 extracellular domain (cynomolgus monkey)
Experiment: binding ELISA, Biacore and FACS

binding, binds:
B1
B2
B3
B4
B5
B6
B7
B8
B9
B10
B11
B12
